These are yes or no findings as the source states them, for the method shown. Binding seen in cells or lysates may run through a third protein. Some binding calls cover weakened binding; strength is not graded here.
What was measured:
[1] = target: FLAG-BEND2 (mouse BEND2 with a 3xFLAG knock-in at the N-terminus) (mouse); experiment: co-IP
[2] = target: CHD4 (mouse (endogenous in testis)) (UniProt Q6PDQ2); experiment: co-IP

By UniProt entry, the sequences of proteins in these tests, tags left out.
UniProt Q6PDQ2: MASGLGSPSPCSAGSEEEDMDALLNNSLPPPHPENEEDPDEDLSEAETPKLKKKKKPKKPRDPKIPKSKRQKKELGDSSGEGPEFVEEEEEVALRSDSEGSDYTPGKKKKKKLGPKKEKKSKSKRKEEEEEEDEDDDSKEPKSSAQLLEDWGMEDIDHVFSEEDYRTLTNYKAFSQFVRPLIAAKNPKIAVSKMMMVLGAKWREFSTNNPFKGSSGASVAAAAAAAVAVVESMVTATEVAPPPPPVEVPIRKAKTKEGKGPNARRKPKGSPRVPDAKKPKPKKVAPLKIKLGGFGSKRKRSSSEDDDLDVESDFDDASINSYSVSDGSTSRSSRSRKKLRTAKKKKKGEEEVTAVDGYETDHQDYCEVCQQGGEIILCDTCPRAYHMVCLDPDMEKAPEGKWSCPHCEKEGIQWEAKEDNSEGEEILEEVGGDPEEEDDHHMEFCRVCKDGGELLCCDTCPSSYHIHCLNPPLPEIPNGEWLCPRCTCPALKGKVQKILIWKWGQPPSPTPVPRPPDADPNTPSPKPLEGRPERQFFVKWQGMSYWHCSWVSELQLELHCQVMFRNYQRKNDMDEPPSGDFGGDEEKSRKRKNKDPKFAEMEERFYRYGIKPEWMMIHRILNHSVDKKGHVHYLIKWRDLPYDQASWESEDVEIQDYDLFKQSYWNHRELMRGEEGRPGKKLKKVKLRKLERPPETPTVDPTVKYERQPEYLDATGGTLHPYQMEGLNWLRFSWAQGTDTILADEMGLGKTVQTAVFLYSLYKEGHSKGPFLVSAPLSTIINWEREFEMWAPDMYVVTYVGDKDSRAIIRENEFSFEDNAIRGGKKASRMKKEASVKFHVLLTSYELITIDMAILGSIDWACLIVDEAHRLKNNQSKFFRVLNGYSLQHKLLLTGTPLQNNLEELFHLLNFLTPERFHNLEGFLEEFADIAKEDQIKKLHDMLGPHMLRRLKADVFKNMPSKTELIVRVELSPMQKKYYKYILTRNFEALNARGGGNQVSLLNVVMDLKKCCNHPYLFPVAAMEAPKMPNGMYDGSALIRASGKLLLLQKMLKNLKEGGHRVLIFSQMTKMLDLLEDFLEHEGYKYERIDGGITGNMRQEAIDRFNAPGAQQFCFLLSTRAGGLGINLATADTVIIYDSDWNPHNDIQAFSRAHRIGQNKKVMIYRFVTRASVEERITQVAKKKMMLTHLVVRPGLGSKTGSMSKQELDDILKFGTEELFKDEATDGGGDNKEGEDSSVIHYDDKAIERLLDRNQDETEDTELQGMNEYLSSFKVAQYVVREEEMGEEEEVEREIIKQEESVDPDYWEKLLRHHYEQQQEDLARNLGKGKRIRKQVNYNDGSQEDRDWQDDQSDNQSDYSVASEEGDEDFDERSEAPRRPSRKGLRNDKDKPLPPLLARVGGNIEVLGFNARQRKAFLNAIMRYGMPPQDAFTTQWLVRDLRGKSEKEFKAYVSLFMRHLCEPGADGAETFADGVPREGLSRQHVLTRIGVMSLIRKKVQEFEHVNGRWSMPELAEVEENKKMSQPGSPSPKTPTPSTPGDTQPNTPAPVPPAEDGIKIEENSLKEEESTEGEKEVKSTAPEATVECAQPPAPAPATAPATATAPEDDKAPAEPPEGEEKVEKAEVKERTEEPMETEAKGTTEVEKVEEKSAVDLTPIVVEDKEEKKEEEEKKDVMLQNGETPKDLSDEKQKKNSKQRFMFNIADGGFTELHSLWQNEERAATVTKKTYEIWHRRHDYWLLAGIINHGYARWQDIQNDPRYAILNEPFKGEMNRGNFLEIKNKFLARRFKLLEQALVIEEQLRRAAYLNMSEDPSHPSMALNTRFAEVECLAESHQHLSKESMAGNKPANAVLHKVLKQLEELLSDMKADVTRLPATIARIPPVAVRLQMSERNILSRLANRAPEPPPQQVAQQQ
UniProt O09106: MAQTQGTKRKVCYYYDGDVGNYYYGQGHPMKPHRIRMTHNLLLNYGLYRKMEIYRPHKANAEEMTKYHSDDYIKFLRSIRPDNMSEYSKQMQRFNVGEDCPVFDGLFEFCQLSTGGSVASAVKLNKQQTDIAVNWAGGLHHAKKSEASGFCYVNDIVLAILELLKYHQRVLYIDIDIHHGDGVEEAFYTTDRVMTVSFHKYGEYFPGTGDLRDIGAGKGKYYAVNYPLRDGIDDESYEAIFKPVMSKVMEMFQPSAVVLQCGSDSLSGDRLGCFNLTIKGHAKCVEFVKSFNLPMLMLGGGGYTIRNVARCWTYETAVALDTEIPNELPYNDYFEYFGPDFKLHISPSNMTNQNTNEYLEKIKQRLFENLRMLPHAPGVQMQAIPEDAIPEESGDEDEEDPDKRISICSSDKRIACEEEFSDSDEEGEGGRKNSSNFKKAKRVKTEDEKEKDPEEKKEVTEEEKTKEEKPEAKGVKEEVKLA
UniProt P23198: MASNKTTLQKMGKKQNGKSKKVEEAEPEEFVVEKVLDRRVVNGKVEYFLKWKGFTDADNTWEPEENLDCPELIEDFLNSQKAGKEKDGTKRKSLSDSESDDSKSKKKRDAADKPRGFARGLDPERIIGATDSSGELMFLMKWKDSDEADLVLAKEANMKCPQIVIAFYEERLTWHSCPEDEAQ

Molecule | binding [1] | binding [2]
CHD4 (from UniProt Q6PDQ2 1-1915) (enzyme) | binds | 
HDAC1 (from UniProt O09106 1-482) (enzyme) | binds | binds
HP1γ (from UniProt P23198 1-183) | binds | binds
ZMYM2 (protein, UniProt Q9CU65 1-1376) MDTSSVGTLELTDQTPVLLGSTAMATSLTNVGNSFSGPPNPLVSRSSKFQNSSVEDDDDVVFIEPVQPPPSSAPLVADQRPITFTSSKNEELQGNDPKILPSSKELAPQKGSVSETIVIDDEEDMETNQGQEKSSSNFIERRPSETKNRTNDVDFSSSTFSRSKVNAGVSNSGITTEPDSEIQIANVTTLETGVSSVSDGQLESTDGRDMNLMITHVTSLHNTSLGDGSNGLQSSNFGVNIQTYTPSLTSQTKAGVGPFNPGRMNVAGDVFQNGESAPHHNPDSWISQSASFPRNQKQQGVDSLSPVASLPKQIFQPSNQQPTKPVKVTCANCKKPLQKGQTAYQRKGSAHLFCSTTCLSSFSHKPAPKKLCVMCKKDITTMKGTIVAQVDSSESFQEFCSTSCLSLYEDKQSPAKGALNKSRCTICGKLTEIRHEVSFKNMTHKLCSDHCFNRYRMANGLIMNCCEQCGEYLPSKGAGNNVLVVDGQQKRFCCQSCVTEYKQVGSHPSFLKEVRDHMQDSFLMQPEKYGKLTTCTGCRTQCRFFDMTQCIGPNGYMEPYCSTACMNSHKTKYAKSQSLGIICHFCKRNSLPQYQATMPDGKLYNFCNSSCVAKFQALSMQSSPNGQFVAPSDIQLKCNYCKNSFCSKPEILEWENKVHQFCSKTCSDDYKKLHCIVTYCEYCQEEKTLHETVNFSGVKRPFCSEGCKLLYKQDFARRLGLRCVTCNYCSQLCKKGATKELDGVVRDFCSEDCCKKFQEWYYKAARCDCCKSQGTLKERVQWRGEMKHFCDQHCLLRFYCQQNEPNMTTQKGPENLHYDQGCQTSRTKMTGSAPPPSPTPNKEMKNKAILCKPLTMTKATYCKPHMQTKSCQTDENWKTEYVPVPIPVPVYVPVPMHMYSQNIPVPTTVPVPVPVPVFLPAPLDSSEKIPATVEDLKSKVSSDPLDSELLTMTDMMTEEEGKAEASNINSVIIETDIIGSDLTKNSDPDIQSNMPDVPYEPDLDIEIDFPRAAEELDMENEFLLPPVFGEEYEEQPRPRSKKKGTKRKAVSGYQSHDDSSDNSECSFPFKYTYGVNAWKHWVKTRQLDEDLLVLDELKSSKSVKLKEDLLSHTTAELNYGLAHFVNEIRRPNGENYAPDSIYYLCLGIQEYLCGSNRKDNIFIDPGYQMFEQELNKILRSWQPSILPDGSIFSRVEEDYLWRIKQLGSHSPVALLNTLFYFNTKYFGLKTVEQHLRLSFGTVFRHWKKNPLTMENKACLRYQVSSLCGTDNEDKIATGKRKHEDDEPVFEQVENTANPSRCPVKMFECYLSKSPQNLNQRMDVFYLQPECSSSTDSPVWYTSTSLDRNTLENMLVRVLLVKDIYDKDNYELDEDTD | binds | 
ADNP (protein, UniProt Q9Z103 1-1108) MFQLPVNNLGSLRKARKTVKKILSDIGLEYCKEHIEDFKQFEPNDFYLKNTTWEDVGLWDPSLTKNQDYRTKPFCCSACPFSSKFFSAYKSHFRNVHSEDFENRILLNCPYCTFNADKKTLETHIKIFHAPNSSAPSSSLSTFKDKNKNDGLKPKQADNVEQAVYYCKKCTYRDPLYEIVRKHIYREHFQHVAAPYIAKAGEKSLNGAVSLGTNAREECNIHCKRCLFMPKSYEALVQHVIEDHERIGYQVTAMIGHTNVVVPRAKPLMLIAPKPQDKKGMGLPPRISSLASGNVRSLPSQQMVNRLSIPKPNLNSTGVNMMSNVHLQQNNYGVKSVGQSYGVGQSVRLGLGGNAPVSIPQQSQSVKQLLPSGNGRSFGLGAEQRPPAAARYSLQTANTSLPPGQVKSPSVSQSQASRVLGQSSSKPPPAATGPPPSNHCATQKWKICTICNELFPENVYSVHFEKEHKAEKVPAVANYIMKIHNFTSKCLYCNRYLPTDTLLNHMLIHGLSCPYCRSTFNDVEKMAAHMRMVHIDEEMGPKTDSTLSFDLTLQQGSHTNIHLLVTTYNLRDAPAESVAYHAQNNAPVPPKPQPKVQEKADVPVKSSPQAAVPYKKDVGKTLCPLCFSILKGPISDALAHHLRERHQVIQTVHPVEKKLTYKCIHCLGVYTSNMTASTITLHLVHCRGVGKTQNGQDKTNAPSRLNQSPGLAPVKRTYEQMEFPLLKKRKLEEDADSPSCFEEKPEEPVVLALDPKGHEDDSYEARKSFLTKYFNKQPYPTRREIEKLAASLWLWKSDIASHFSNKRKKCVRDCEKYKPGVLLGFNMKELNKVKHEMDFDAEWLFENHDEKDSRVNASKTVDKKHNLGKEDDSFSDSFEHLEEESNGSGSPFDPVFEVEPKIPSDNLEEPVPKVIPEGALESEKLDQKEEEEEEEEEDGSKYETIHLTEEPAKLMHDASDSEVDQDDVVEWKDGASPSESGPGSQQISDFEDNTCEMKPGTWSDESSQSEDARSSKPAAKKKATVQDDTEQLKWKNSSYGKVEGFWSKDQSQWENASENAERLPNPQIEWQNSTIDSEDGEQFDSMTDGVADPMHGSLTGVKLSSQQA | binds | binds
